The list shows a part of the results.
Tests used:
Assay in all cases: glycan array binding signal (z-score within array); higher = stronger binding
Conditions in all cases: glycan notation: IUPAC condensed, linker removed
Kdn(a2-3)Gal(b1-3)GlcNAc = tested on: Kdn(a2-3)Gal(b1-3)GlcNAc
Summary of the method: (§1)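 The binding signal is a Z-score computed within each array and averaged over linkers. Arrays of the same protein sequence at different concentrations or buffers were also averaged together. Data originate from 3228 arrays in the Consortium for Functional Glycomics database, kept only where the protein sequence was available.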

Kdn(a2-3)Gal(b1-4)GlcNAc = tested on: Kdn(a2-3)Gal(b1-4)GlcNAc
Summary of the method: as §1

Kdn(a2-3)Gal(b1-4)Glc = tested on: Kdn(a2-3)Gal(b1-4)Glc
Summary of the method: as §1

[1] = tested on: Kdn(a2-3)Gal(b1-4)[Fuc(a1-3)]GlcNAc
Summary of the method: as §1

Kdn(a2-6)Gal(b1-4)GlcNAc = tested on: Kdn(a2-6)Gal(b1-4)GlcNAc
Summary of the method: as §1

[2] = tested on: Man(a1-2)Man(a1-2)Man(a1-3)Man
Summary of the method: as §1

[3] = tested on: Man(a1-2)Man(a1-2)Man(a1-6)[Man(a1-3)]Man
Summary of the method: as §1

Man(a1-2)Man(a1-3)Man = tested on: Man(a1-2)Man(a1-3)Man
Summary of the method: as §1

[4] = tested on: Man(a1-2)Man(a1-3)[Man(a1-2)Man(a1-6)]Man(a1-6)[Man(a1-2)Man(a1-2)Man(a1-3)]Man(b1-4)GlcNAc(b1-4)GlcNAc
Summary of the method: as §1

[5] = tested on: Man(a1-2)Man(a1-3)[Man(a1-2)Man(a1-6)]Man(a1-6)[Man(a1-2)Man(a1-2)Man(a1-3)]Man
Summary of the method: as §1

[6] = tested on: Man(a1-2)Man(a1-3)[Man(a1-2)Man(a1-6)]Man
Summary of the method: as §1

[7] = tested on: Man(a1-2)Man(a1-3)[Man(a1-6)]Man(a1-6)[Man(a1-2)Man(a1-3)]Man(b1-4)GlcNAc(b1-4)GlcNAc
Summary of the method: as §1

[8] = tested on: Man(a1-2)Man(a1-6)[Man(a1-3)]Man(a1-6)[Man(a1-2)Man(a1-2)Man(a1-3)]Man(b1-4)GlcNAc(b1-4)GlcNAc
Summary of the method: as §1

[9] = tested on: Man(a1-2)Man(a1-6)[Man(a1-3)]Man(a1-6)[Man(a1-2)Man(a1-2)Man(a1-3)]Man
Summary of the method: as §1

[10] = tested on: Man(a1-3)[Man(a1-6)]Man(a1-6)[Man(a1-2)Man(a1-3)]Man(b1-4)GlcNAc(b1-4)GlcNAc
Summary of the method: as §1

[11] = tested on: Man(a1-3)[Man(a1-6)]Man(a1-6)[Man(a1-3)]Man(b1-4)GlcNAc(b1-4)GlcNAc
Summary of the method: as §1

[12] = tested on: Man(a1-3)[Man(a1-6)]Man(a1-6)[Man(a1-3)]Man
Summary of the method: as §1

[13] = tested on: Man(a1-3)[Man(a1-6)]Man(b1-4)GlcNAc(b1-4)GlcNAc
Summary of the method: as §1

[14] = tested on: Man(a1-3)[Man(a1-6)]Man(b1-4)GlcNAc(b1-4)[Fuc(a1-6)]GlcNAc
Summary of the method: as §1

Man(a1-3)[Man(a1-6)]Man = tested on: Man(a1-3)[Man(a1-6)]Man
Summary of the method: as §1

Man(a1-6)Man = tested on: Man(a1-6)Man
Summary of the method: as §1

Man(b1-4)GlcNAc = tested on: Man(b1-4)GlcNAc
Summary of the method: as §1

MurNAc(b1-4)GlcNAc = tested on: MurNAc(b1-4)GlcNAc
Summary of the method: as §1

[15] = tested on: Neu5Ac(a2-3)Gal(b1-3)GalNAc(b1-3)Gal(a1-4)Gal(b1-4)Glc
Summary of the method: as §1

[16] = tested on: Neu5Ac(a2-3)Gal(b1-3)GalNAc(b1-4)Gal(b1-4)Glc
Summary of the method: as §1

[17] = tested on: Neu5Ac(a2-3)Gal(b1-3)GalNAc(b1-4)[Neu5Ac(a2-3)]Gal(b1-4)Glc
Summary of the method: as §1

[18] = tested on: Neu5Ac(a2-3)Gal(b1-3)GalNAc(b1-4)[Neu5Ac(a2-8)Neu5Ac(a2-3)]Gal(b1-4)Glc
Summary of the method: as §1

[19] = tested on: Neu5Ac(a2-3)Gal(b1-3)GalNAc6S
Summary of the method: as §1

[20] = tested on: Neu5Ac(a2-3)Gal(b1-3)GalNAc
Summary of the method: as §1

[21] = tested on: Neu5Ac(a2-3)Gal(b1-3)GlcNAc(b1-2)Man(a1-3)[GlcNAc(b1-4)][Neu5Ac(a2-3)Gal(b1-3)GlcNAc(b1-2)Man(a1-6)]Man(b1-4)GlcNAc(b1-4)GlcNAc
Summary of the method: as §1

[22] = tested on: Neu5Ac(a2-3)Gal(b1-3)GlcNAc(b1-2)Man(a1-3)[Neu5Ac(a2-3)Gal(b1-3)GlcNAc(b1-2)Man(a1-6)]Man(b1-4)GlcNAc(b1-4)GlcNAc
Summary of the method: as §1

[23] = tested on: Neu5Ac(a2-3)Gal(b1-3)GlcNAc(b1-2)Man
Summary of the method: as §1

MpAFP RI GFP (Marinomonas primoryensis)
glycan array binding signal (z-score) (Kdn(a2-3)Gal(b1-3)GlcNAc): -0.658 | glycan array binding signal (z-score) (Kdn(a2-3)Gal(b1-4)GlcNAc): -0.126 | glycan array binding signal (z-score) (Kdn(a2-3)Gal(b1-4)Glc): -0.272 | glycan array binding signal (z-score) [1]: -0.342 | glycan array binding signal (z-score) (Kdn(a2-6)Gal(b1-4)GlcNAc): 0.191 | glycan array binding signal (z-score) [2]: -0.515 | glycan array binding signal (z-score) [3]: -0.476 | glycan array binding signal (z-score) (Man(a1-2)Man(a1-3)Man): -0.301 | glycan array binding signal (z-score) [4]: -0.271 | glycan array binding signal (z-score) [5]: -0.475 | glycan array binding signal (z-score) [6]: 0.777 | glycan array binding signal (z-score) [7]: -1.04 | glycan array binding signal (z-score) [8]: -0.007 | glycan array binding signal (z-score) [9]: -0.648 | glycan array binding signal (z-score) [10]: -0.2 | glycan array binding signal (z-score) [11]: -0.154 | glycan array binding signal (z-score) [12]: 0.953 | glycan array binding signal (z-score) [13]: -0.314 | glycan array binding signal (z-score) [14]: -0.117 | glycan array binding signal (z-score) (Man(a1-3)[Man(a1-6)]Man): 2.02 | glycan array binding signal (z-score) (Man(a1-6)Man): 0.447 | glycan array binding signal (z-score) (Man(b1-4)GlcNAc): 1.81 | glycan array binding signal (z-score) (MurNAc(b1-4)GlcNAc): -0.327 | glycan array binding signal (z-score) [15]: -0.578 | glycan array binding signal (z-score) [16]: -0.46 | glycan array binding signal (z-score) [17]: -0.665 | glycan array binding signal (z-score) [18]: -0.565 | glycan array binding signal (z-score) [19]: -0.209 | glycan array binding signal (z-score) [20]: 0.25 | glycan array binding signal (z-score) [21]: -0.323 | glycan array binding signal (z-score) [22]: 1.68 | glycan array binding signal (z-score) [23]: -0.347

Reference: the supplement of paper PMC8728848
